Results published in US8153627B2, “Quinazoline linked pyrrolo[2,1-C][1, 4]benzodiazepine hybrids as potential anticancer agents and process for the preparation thereof” (Council of Scientific & Industrial Research, priority 2008, dated 2012).
Read-outs that look alike come from different tables or passages of the source. Some results were stated once for a whole list of compounds, not compound by compound.

System: sixty human tumor cells derived from nine cancer types
Experiment: NCI sixty human tumor cell line screen (SRB), all lines / mean graph midpoints
Format: cell-based
Description: 5a, 5c and 5d was evaluated for in vitro anticancer activity against sixty human tumor cells derived from nine cancer types leukemia, non-small-cell lung, colon, CNS, melanoma, ovarian, prostate, and breast cancer) as shown in (Table 1 and 2). For the compound, dose response curves for each cell line were measured at a minimum of five concentrations at 10 fold dilutions. A protocol of 48 h continuous drug exposure was used and a sulforhodamine B (SRB) protein assay was used to estimate cell viability or growth. The concentration causing 50% cell growth inhibition (GI50), total cell growth inhibition (TGI 0% growth) and 50% cell death (LC50, −50% growth) compared with the control was calculated.
The mean graph mid points of log10 TGI and log10 LC50 have shown similar pattern to the log10 GI50 mean graph mid points.

Structure (SMILES)	GI50 (sixty cell lines in nine cancer cell panels, read-out: GI50 against sixty cell lines in nine cancer cell panels)	GI50 (fifty-seven cell lines in nine cancer cell panels, read-out: GI50 against fifty-seven cell lines in nine cancer cell panels)
COc1cc2c(cc1OCCCCCN1CCN(c3ncnc4ccccc34)CC1)N=C[C@@H]1CCCN1C2=O [Compound 5c]	< 10 µM	
COc1cc2c(cc1OCCCCCCN1CCN(c3ncnc4ccccc34)CC1)N=C[C@@H]1CCCN1C2=O [Compound 5d]		< 10 µM
